According to PubChem BioAssay AID2685 (National Center for Advancing Translational Sciences (NCATS), 2010):
Some of the results follow. Further columns of the screen follow, without active or inactive calls. Most of these compounds were active or inconclusive in the main read-out, so they are no random draw. Words in brackets tell the shape of the fitted curve; partial curves, single points and poor fits give uncertain potencies.

Assay: qHTS Assay for Lipid Storage Modulators in Drosophila S3 Cells;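 on cell number change: cells counted by Cell Tracker Red CMTPX staining in the red channel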
Conditions: BODIPY lipid droplet fluorescence, 18-24 h; for cell number change: measured here: cell count max response, cells fed with added oleic acid
Outline: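 Laser-scanning cytometry quantifies lipid droplet accumulation (500–530 nm total intensity; droplet/cell object ratio) in oleic acid-fed (400 uM added) Drosophila S3 cells treated with a concentration series. 20 uM Triacsin C defined 100% inhibition.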

[1] = measured here: cell number channel AC50, cells fed with added oleic acid
[2] = measured here: lipid fluorescence (Fed channel) AC50, cells fed with added oleic acid

Row | Compound | cell number change [%] | AC50 [1] | AC50 [2]
1 | Cc1cc(C)nc(S/C=C/C(=O)c2ccccc2F)n1 | -35 | 7.31 µM [falling, partial curve, poor fit] | 29.1 µM [falling, single point]
2 | COc1ccc(C2=CSC3=NCCN23)cc1OC | -1.46 |  | 
3 | CC(CN1CCCC1)OC(=O)Cc1ccc(Cl)cc1 (stereo unspecified) | -0.265 |  | 
4 | Cc1ccc(-c2noc(CCC(=O)NC3CCCC3)n2)cc1 | 2.1 |  | 6.51 µM [rising, full curve, poor fit]
5 | Cc1ccc(COCC(CC(C)C)N2CCN(C(=O)c3cccc(C(F)(F)F)c3)CCC2=O)cc1 (stereo unspecified) | -37.3 | 16.4 µM [falling, partial curve, poor fit] | 32.6 µM [falling, partial curve, poor fit]
6 | CCOCCCNC(=O)C(c1ccc(C)cc1)N(Cc1ccc2c(c1)OCO2)C(=O)CNC(C)=O (stereo unspecified) | 18.9 |  | 29.1 µM [rising, single point]
7 | COc1cc(NC(=O)CSCc2ccc(Cl)cc2)c(C(=O)O)cc1OC | 1.32 |  | 14.6 µM [rising, partial curve]
8 | Cc1ccc(NC(=O)/C=C/c2cccc([N+](=O)[O-])c2)nc1 | -17.1 | 0.00461 µM [falling, full curve, poor fit] | 0.00461 µM [falling, full curve, poor fit]
9 | Cc1cc(C(=O)N2CCCC(N3CCN(c4cccc(Cl)c4)CC3)C2)no1 (stereo unspecified) | 49.9 |  | 
10 | N#CC(C(=O)NC1CCCCC1)c1nc2ccccc2nc1N1CCOCC1 (stereo unspecified) | 20.7 |  | 6.51 µM [rising, single point]
11 | Cc1ccc(NC(=O)COc2coc(CN3CCc4ccccc43)cc2=O)cc1Cl | 10.8 |  | 
12 | O=C(Cn1ncc2c1-c1ccccc1OC2)N1CCN(Cc2ccc3c(c2)OCO3)CC1 | 6.67 |  | 11.6 µM [rising, partial curve]
13 | Cc1cc(C)nc(NS(=O)(=O)c2ccc(NC(=O)CCC3COc4ccccc4O3)cc2)n1 (stereo unspecified) |  | 0.651 µM [falling, single point] | 6.51 µM [falling, single point]
14 | c1ccc(N2CCN(c3nc(NCc4ccco4)c4ccccc4n3)CC2)cc1 | -61.6 | 0.146 µM [rising, full curve] | 0.164 µM [rising, full curve, poor fit]
15 | COc1ccc2c(c1)c(CC(=O)Nc1ccc(C(C)=O)cc1)c(C)n2C(=O)c1ccc(Cl)cc1 | -33.1 | 29.1 µM [falling, single point] | 20.6 µM [falling, single point]
16 | COc1ccc(CN(C)CC(=O)Nc2cccc3ccccc23)cc1F | 14.6 |  | 
17 | Cc1cc(C)c(C#N)c(Oc2ccccc2Br)n1 | 25.5 |  | 3.26 µM [rising, single point]
18 | COC(=O)C1(C)CCc2cc(OC)ccc2C1=O (stereo unspecified) | -83.3 | 0.92 µM [falling, full curve] | 25.9 µM [rising, single point]
19 | CCCc1cc(=O)[nH]c(SC(C)C(=O)Nc2ccc3c(c2)OCCO3)n1 (stereo unspecified) | -15.7 |  | 18.4 µM [rising, partial curve]
20 | O=C(NCc1ccco1)C1CCC(CNS(=O)(=O)c2cccc3cccnc23)CC1 (stereo unspecified) |  | 0.206 µM [rising, full curve, poor fit] | 29.1 µM [rising, single point]

Row | Compound | cell number change [%] | AC50 [1] | AC50 [2]
21 | CCCCN(C(=O)c1cc2c(s1)CCC2)c1c(N)n(CC(C)C)c(=O)[nH]c1=O | 21.6 |  | 
22 | CCOC(=O)c1cnn(-c2ccc(Cl)cc2)c1C1CCN(C(=O)OC(C)(C)C)CC1 | 4.49 | 1.3 µM [rising, partial curve] | 29.1 µM [rising, partial curve]
23 | COc1ccc(S(=O)(=O)N2CCN(Cc3cccc(OC)c3)CC2)cc1 | 1.57 |  | 29.1 µM [rising, single point]
24 | O=c1oc2ccccc2cc1-c1csc(Nc2ccc(O)cc2)n1 | -45.8 |  | 
25 | CCOc1ccc(C(=O)CCC(=O)N(CC)CC(=O)Nc2c(F)cccc2F)cc1 | 50 | 0.206 µM [rising, full curve] | 29.1 µM [falling, single point]
26 | CCOc1ccc(CN(C)CC(=O)Nc2ccccc2C(=O)NC2CC2)cc1 | -25 | 0.00411 µM [falling, full curve, poor fit] | 
27 | CCCn1c(N)c(C(=O)CSc2nc(C)cs2)c(=O)n(C)c1=O | -15.6 |  | 16.4 µM [falling, single point]
28 | NC(=O)C1CCN(c2oc(/C=C/c3ccc(F)cc3)nc2S(=O)(=O)c2ccccc2)CC1 | -7.41 | 1.64 µM [falling, partial curve] | 
29 | CC(C)CC(Nc1ncnc2scc(-c3ccccc3)c12)C(=O)O (stereo unspecified) | 19.2 |  | 
30 | O=C(COC(=O)C1CCCCC1)Nc1ccc([N+](=O)[O-])cc1 | -16.8 | 0.82 µM [falling, full curve] | 0.517 µM [falling, full curve]
31 | CCOC(=O)Cn1nc(-c2ccc(Cl)cc2)ccc1=O | 19.5 |  | 
32 | CC(=O)c1c(C)[nH]c(-c2ccccc2)c1C | 36.4 | 29.1 µM [rising, single point] | 
33 | Cc1ccc(C(=O)NCC(=O)NC2CCC(C)CC2)s1 (stereo unspecified) | -0.735 |  | 20.6 µM [rising, partial curve]
34 | S=C(NCC1CCCO1)N1CCN(c2nc(-c3ccc(Cl)cc3)cs2)CC1 (stereo unspecified) | -14.7 |  | 13 µM [falling, partial curve, poor fit]
35 | COc1ccc(OCc2cc(C(=O)NC3CCOCC3)no2)c2ccccc12 | -5.66 |  | 20.6 µM [rising, single point]
36 | CCc1cccc(C)c1NC(=O)C1CCCO1 (stereo unspecified) | 2.61 |  | 0.517 µM [rising, full curve]
37 | Nc1c(C(=O)NCc2cccnc2)sc(=S)n1-c1ccccc1 | -5.78 |  | 2.06 µM [rising, single point]
38 | O=C(CSc1nncn1-c1ccccc1)Nc1ccccc1F | 12.2 |  | 0.206 µM [rising, single point]
39 | Cc1cccc(C)c1NC(=O)CSc1nnc(-c2ccoc2C)n1C | 5.12 | 2.31 µM [rising, partial curve, poor fit] | 
40 | CCCCNC(=O)CCn1c(=O)c2ccccc2n(Cc2ccc(Cl)cc2)c1=O |  | 0.146 µM [rising, full curve, poor fit] | 

Row | Compound | cell number change [%] | AC50 [1] | AC50 [2]
41 | CC(=O)Nc1ccc(/C=N/NC(=S)NC(C)C)cc1 | 32.5 |  | 11.6 µM [rising, partial curve]
42 | O=C(Nc1ccc(-c2nc3ccccc3o2)c(O)c1)c1cc(-n2cnnc2)ccc1Cl | -54 | 29.1 µM [falling, single point] | 29.1 µM [falling, single point]
43 | CCN(CC)S(=O)(=O)c1ccc(NC(=O)C(OC)c2ccccc2)cc1 (stereo unspecified) | 0.272 |  | 32.6 µM [rising, single point]
44 | Cc1cc(=O)oc(C)c1C(=O)NCC1COc2ccccc2O1 (stereo unspecified) | -1.37 | 7.31 µM [rising, single point] | 3.26 µM [rising, full curve, poor fit]
45 | O=S(=O)(NCCSc1nnnn1-c1ccccc1)c1cccs1 |  |  | 1.84 µM [falling, partial curve, poor fit]
46 | COc1ccc(C(=O)Nc2cc(OC)c(NC(=O)c3ccco3)cc2OC)cc1 | 7.64 | 0.731 µM [rising, full curve] | 3.66 µM [falling, single point]
47 | COc1ccc(/C=N/NC(=O)c2ccn[nH]2)cc1COc1ccc(Cl)cc1Cl | -7.09 |  | 0.92 µM [rising, full curve, poor fit]
48 | C1=Nc2ccccc2CN1c1ccccc1 | -11.1 |  | 0.517 µM [rising, single point]
49 | Cn1cccc1C(=O)OCC(=O)Nc1ccc2c(c1)OCO2 | 23.2 |  | 29.1 µM [rising, single point]
50 | Cc1cc(C)c(S(=O)(=O)NCC(=O)NCc2ccccn2)c(C)c1 |  |  | 2.24 µM [falling, partial curve]
51 | O=C(/C=C/c1ccccc1)Nc1ccc(CN2CCOCC2)cc1 | 12.2 |  | 29.1 µM [rising, single point]
52 | COc1ccc(C(=O)COC(=O)c2ccc(Cl)nc2)c(OC)c1 | 15 |  | 
53 | Cn1nc(C(C)(C)C)cc1C(=O)NCc1ccc(N2CCCC2=O)cc1 | -51.6 | 2.06 µM [falling, full curve] | 
54 | O=C(O)c1cccc(S(=O)(=O)NCCC(c2ccccc2)c2ccccc2)c1 |  |  | 0.184 µM [rising, full curve]
55 | CCN(CC)c1ccc(C(=O)N/N=C(\C)c2ccc(O)cc2)cc1 | 54.2 | 0.00651 µM [rising, full curve, poor fit] | 32.6 µM [rising, partial curve, poor fit]
56 | CC1CC(C)CN(C(=O)C2CCCN(c3ncnc4c3nc3n4CCCCC3)C2)C1 (stereo unspecified) |  | 3.66 µM [falling, single point] | 0.58 µM [falling, single point]
57 | COc1ccc(NC(=O)CN(C)C(=O)CN2C(=O)NC3(CCCCC3)C2=O)cc1 | 7.03 |  | 
58 | CCN(CC)S(=O)(=O)c1cccc(NC(=O)COC(=O)c2n[nH]c(=O)c3ccccc23)c1 | 23.7 |  | 
59 | COC(=O)c1ccccc1NC(=O)c1ccco1 | 74 | 6.51 µM [rising, full curve] | 20.6 µM [rising, single point]

An excerpt from above in order of length of the SMILES, rising.
Row | Compound | cell number change [%] | AC50 [1] | AC50 [2]
3 | CC(CN1CCCC1)OC(=O)Cc1ccc(Cl)cc1 (stereo unspecified) | -0.265 |  | 
14 | c1ccc(N2CCN(c3nc(NCc4ccco4)c4ccccc4n3)CC2)cc1 | -61.6 | 0.146 µM [rising, full curve] | 0.164 µM [rising, full curve, poor fit]
57 | COc1ccc(NC(=O)CN(C)C(=O)CN2C(=O)NC3(CCCCC3)C2=O)cc1 | 7.03 |  | 
12 | O=C(Cn1ncc2c1-c1ccccc1OC2)N1CCN(Cc2ccc3c(c2)OCO3)CC1 | 6.67 |  | 11.6 µM [rising, partial curve]
